In this assay the target is T1, Flag-IKKε (UniProt Q14164).
T1 sequence: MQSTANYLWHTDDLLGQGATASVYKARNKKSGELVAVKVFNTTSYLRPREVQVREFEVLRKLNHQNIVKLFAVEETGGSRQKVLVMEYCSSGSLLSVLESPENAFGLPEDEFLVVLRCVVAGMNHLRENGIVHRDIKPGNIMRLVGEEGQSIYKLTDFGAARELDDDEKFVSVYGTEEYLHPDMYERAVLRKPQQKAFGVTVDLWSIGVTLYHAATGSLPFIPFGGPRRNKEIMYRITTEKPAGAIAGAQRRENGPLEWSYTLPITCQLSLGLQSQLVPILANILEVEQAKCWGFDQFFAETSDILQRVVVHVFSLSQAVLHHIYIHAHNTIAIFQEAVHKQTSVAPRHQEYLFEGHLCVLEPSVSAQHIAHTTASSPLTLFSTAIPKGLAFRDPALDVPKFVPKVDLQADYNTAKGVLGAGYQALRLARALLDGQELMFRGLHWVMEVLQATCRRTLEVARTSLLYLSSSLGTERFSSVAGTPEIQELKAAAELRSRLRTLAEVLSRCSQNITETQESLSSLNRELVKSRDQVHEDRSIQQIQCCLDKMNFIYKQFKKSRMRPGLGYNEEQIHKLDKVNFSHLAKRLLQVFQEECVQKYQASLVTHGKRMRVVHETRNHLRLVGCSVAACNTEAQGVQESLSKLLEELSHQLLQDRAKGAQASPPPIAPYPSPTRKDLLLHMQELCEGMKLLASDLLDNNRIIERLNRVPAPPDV
The assay is described as follows: co-IP.

The values that follow come from publication PMC5494602.

These are yes or no findings as the source states them, for the method shown. Binding seen in cells or lysates may run through a third protein. Some binding calls cover weakened binding; strength is not graded here. Where a sequence is shown, tags or fusion partners need not be part of it.

“HA-MAVS (mitochondrial antiviral signaling protein, full length) (from UniProt Q7Z434-1 1-540)”: the binding result is “binds”.
